# Data published in the supplement of paper PMC10849652.
# Chains of the proteins cited; added tags and fusions are not shown. Lines headed by an entry give the natural chain unless they say otherwise; changes in a name come on top.
# UniProt Q8NDX5: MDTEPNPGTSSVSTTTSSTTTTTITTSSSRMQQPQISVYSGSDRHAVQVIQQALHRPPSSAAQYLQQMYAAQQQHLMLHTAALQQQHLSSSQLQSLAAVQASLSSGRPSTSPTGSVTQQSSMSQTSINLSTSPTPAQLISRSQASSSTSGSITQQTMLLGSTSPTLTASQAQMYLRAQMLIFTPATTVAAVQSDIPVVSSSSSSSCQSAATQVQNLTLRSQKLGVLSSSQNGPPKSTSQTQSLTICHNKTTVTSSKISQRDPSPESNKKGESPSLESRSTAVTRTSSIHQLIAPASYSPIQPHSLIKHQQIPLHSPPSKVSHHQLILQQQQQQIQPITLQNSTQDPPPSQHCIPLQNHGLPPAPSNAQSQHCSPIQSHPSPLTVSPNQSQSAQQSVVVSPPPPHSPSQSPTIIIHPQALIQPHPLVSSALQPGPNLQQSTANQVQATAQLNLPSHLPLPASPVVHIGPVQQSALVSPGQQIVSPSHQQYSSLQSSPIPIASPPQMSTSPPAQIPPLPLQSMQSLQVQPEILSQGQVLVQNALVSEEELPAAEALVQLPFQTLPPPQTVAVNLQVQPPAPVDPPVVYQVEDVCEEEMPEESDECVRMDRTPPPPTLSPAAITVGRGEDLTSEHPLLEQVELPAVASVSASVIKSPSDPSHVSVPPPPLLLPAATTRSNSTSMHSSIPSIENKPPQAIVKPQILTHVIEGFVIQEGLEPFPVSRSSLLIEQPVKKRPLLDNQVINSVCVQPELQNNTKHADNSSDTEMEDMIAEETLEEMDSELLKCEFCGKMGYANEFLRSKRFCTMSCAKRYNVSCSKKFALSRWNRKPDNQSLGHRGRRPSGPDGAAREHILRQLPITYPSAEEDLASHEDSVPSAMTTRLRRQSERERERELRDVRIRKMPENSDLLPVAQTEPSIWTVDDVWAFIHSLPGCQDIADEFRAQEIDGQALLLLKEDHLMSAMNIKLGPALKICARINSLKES
# UniProt O00459, whole entry, looked up: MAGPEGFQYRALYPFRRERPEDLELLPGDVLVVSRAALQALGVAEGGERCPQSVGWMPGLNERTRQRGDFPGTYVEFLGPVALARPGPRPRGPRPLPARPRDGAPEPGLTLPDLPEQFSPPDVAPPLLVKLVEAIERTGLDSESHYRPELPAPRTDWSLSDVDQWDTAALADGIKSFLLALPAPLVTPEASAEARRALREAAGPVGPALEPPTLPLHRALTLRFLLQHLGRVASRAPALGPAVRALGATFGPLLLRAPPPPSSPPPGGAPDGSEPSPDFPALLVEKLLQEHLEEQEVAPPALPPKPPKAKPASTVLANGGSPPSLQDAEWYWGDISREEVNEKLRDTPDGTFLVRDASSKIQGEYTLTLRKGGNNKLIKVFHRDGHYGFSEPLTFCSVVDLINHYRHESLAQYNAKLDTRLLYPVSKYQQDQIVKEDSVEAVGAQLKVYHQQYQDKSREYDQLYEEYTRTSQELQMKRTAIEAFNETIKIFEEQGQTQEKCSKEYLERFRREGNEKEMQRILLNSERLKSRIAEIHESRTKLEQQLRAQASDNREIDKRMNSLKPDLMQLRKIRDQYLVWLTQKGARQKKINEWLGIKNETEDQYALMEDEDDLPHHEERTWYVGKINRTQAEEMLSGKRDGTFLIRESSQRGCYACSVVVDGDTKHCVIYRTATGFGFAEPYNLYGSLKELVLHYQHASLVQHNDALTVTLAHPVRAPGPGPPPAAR
# UniProt Q13393: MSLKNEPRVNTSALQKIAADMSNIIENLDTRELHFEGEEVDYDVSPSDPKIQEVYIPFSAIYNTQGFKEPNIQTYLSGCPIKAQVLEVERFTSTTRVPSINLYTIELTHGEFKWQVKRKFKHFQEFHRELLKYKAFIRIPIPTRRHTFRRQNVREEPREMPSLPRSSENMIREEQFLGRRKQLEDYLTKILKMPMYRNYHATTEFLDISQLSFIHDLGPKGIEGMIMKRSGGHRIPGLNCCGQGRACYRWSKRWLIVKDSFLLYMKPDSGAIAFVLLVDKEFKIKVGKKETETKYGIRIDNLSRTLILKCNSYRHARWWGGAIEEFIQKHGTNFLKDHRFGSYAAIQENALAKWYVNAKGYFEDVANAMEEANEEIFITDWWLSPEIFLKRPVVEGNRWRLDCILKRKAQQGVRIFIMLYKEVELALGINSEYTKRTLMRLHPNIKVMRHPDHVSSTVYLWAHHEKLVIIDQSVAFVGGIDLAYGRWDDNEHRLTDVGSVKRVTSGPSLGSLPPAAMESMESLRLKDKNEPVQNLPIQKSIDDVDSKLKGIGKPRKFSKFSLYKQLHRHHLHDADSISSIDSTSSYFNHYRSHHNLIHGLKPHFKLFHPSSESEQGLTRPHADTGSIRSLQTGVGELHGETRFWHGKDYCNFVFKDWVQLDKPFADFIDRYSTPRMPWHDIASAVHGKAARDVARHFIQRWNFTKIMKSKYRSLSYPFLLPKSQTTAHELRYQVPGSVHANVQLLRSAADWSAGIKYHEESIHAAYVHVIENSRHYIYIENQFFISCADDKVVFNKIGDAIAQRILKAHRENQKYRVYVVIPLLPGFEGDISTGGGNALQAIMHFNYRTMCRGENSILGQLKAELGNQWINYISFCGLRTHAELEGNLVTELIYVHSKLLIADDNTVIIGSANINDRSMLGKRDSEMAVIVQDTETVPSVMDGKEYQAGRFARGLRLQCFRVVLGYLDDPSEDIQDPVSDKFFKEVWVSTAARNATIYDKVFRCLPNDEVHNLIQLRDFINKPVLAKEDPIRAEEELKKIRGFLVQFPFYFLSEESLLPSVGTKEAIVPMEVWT
# UniProt Q13608: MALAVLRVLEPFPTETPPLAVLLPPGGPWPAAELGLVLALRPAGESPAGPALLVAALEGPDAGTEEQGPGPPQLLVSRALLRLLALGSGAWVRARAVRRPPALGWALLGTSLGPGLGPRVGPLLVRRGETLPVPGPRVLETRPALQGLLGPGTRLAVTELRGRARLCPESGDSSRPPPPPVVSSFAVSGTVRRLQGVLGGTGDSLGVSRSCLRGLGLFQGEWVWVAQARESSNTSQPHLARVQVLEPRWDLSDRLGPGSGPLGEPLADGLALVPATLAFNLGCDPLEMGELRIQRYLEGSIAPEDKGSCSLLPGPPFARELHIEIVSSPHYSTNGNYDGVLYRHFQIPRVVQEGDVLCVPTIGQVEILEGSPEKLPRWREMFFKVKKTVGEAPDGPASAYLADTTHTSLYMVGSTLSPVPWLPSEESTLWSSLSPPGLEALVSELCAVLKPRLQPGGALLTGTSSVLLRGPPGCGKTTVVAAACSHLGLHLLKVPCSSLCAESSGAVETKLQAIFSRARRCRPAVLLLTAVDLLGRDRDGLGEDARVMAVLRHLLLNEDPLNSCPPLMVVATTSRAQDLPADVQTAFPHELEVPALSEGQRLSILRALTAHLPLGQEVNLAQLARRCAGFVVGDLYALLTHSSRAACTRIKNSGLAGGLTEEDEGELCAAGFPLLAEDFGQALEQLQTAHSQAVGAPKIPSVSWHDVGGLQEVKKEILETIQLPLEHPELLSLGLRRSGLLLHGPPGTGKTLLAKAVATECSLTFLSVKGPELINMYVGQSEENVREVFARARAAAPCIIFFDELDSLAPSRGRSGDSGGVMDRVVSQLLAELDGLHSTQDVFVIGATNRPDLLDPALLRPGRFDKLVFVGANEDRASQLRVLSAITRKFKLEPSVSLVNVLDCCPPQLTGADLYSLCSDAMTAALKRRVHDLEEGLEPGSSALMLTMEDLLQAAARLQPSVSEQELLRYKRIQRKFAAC
# UniProt O95336: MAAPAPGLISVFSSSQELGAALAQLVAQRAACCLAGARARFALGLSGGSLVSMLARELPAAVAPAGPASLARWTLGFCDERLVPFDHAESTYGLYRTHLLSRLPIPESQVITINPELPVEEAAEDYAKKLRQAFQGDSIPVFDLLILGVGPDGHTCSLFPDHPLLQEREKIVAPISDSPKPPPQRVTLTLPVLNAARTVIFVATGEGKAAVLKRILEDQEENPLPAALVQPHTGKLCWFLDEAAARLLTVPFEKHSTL
# UniProt Q13492: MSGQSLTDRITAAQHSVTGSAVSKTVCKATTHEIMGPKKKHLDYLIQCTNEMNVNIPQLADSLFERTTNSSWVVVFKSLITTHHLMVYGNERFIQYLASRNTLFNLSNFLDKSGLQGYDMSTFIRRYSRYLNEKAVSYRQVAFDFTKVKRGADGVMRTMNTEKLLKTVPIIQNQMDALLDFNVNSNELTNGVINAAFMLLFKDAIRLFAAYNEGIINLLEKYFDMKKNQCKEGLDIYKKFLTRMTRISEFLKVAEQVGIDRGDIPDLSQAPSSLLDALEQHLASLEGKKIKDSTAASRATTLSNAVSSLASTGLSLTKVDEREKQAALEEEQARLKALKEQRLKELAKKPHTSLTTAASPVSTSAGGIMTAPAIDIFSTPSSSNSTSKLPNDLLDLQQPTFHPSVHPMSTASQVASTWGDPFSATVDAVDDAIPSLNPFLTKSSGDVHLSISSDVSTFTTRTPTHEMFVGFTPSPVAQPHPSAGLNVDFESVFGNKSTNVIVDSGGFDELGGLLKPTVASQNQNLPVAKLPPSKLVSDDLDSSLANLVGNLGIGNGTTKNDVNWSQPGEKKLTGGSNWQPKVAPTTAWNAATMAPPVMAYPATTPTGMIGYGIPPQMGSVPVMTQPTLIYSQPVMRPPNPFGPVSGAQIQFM
# UniProt Q7Z7B1: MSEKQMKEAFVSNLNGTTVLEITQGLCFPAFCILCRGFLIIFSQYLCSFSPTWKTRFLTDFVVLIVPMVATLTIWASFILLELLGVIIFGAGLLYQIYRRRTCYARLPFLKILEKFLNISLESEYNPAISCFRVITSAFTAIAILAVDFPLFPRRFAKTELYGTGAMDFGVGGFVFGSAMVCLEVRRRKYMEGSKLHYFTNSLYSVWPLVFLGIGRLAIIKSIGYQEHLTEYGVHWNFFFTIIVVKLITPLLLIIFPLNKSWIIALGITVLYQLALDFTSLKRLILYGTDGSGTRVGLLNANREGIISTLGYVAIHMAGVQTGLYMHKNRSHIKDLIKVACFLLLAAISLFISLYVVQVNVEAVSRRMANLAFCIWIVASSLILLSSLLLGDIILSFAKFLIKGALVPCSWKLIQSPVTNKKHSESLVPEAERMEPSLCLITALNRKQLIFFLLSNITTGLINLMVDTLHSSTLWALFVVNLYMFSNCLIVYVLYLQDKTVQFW
# UniProt Q8IWS0: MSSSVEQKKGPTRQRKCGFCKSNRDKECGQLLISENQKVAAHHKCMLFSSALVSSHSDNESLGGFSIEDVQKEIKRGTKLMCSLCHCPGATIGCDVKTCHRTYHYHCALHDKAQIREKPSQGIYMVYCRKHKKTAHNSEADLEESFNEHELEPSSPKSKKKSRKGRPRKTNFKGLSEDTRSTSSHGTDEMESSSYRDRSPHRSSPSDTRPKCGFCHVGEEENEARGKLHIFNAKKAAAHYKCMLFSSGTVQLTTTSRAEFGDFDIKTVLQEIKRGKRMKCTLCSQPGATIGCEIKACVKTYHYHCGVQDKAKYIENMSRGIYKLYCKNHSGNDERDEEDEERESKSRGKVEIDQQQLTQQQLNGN
# PIGBOS1, A0A0B4J2F0, UniProt A0A0B4J2F0, whole entry, looked up: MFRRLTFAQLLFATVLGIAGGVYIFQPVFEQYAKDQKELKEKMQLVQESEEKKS
# UniProt Q9H490: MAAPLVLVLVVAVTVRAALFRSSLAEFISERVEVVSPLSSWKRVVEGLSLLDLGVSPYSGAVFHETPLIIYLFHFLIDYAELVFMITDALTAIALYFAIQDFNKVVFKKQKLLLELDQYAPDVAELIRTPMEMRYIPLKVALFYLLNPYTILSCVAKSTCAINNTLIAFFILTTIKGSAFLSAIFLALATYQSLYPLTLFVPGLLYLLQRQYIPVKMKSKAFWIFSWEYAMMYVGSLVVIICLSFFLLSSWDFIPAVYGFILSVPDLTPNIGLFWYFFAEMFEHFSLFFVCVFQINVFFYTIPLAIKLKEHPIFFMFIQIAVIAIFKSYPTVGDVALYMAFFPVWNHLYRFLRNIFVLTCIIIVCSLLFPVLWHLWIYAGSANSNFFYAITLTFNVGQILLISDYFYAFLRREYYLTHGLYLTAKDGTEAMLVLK
# UniProt P52209: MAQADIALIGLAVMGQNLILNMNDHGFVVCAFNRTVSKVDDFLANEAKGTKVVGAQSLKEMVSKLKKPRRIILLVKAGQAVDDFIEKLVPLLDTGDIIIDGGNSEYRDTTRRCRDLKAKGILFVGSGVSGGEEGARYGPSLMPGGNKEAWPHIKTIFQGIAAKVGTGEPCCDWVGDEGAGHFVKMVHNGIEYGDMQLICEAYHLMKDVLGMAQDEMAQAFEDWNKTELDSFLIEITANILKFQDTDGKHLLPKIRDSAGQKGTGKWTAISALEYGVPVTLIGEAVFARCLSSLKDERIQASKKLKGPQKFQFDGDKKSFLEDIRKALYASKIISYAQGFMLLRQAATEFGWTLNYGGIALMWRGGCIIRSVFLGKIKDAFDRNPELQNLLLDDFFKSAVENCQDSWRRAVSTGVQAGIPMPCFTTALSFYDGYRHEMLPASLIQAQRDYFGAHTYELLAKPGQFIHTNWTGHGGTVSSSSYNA
# The list shows a part of the results.
# Experiments:
# Test in all cases: log2 fold change, soluble protein after heating vs DMSO (PISA); higher = thermal stabilisation; K562 cells, 10 uM, 30 min; active = over 0.2 and 3.5 SD of the protein, either way, in both replicates (recomputed)
# [1] = compound: CC[C@@H]1C(=O)N(C)c2cnc(Nc3ccc(C(=O)NC4CCN(C)CC4)cc3OC)nc2N1C1CCCC1
# How it was run: (§1)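 K562 cells at 2×10^6 cells/mL were treated for 30 min with 10 μM compound, and aliquots were heated for 3 min over 48°C-58°C before pooling. Extraction used PBS with 0.5% NP-40 at 4°C, and soluble protein was the supernatant after 21,000xg for 90 min, measured by TMTpro 16plex LC-MS/MS with channel sums equalised. Thermal stability values, relative to control samples and from duplicates, are log2 fold changes.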
# [2] = compound: CC[C@@H]1C(=O)N(C)c2cnc(Nc3ccc(C(=O)N[C@H]4CC[C@H](N5CCN(CC6CC6)CC5)CC4)cc3OC)nc2N1C(C)C [volasertib]
# How it was run: as §1
# [3] = compound: CC[C@H](C)N1C=C(C2=C(C=C(C=C21)C3=CN=C(C=C3)N4CCNCC4)C(=O)NCC5=C(C=C(NC5=O)C)C)C
# How it was run: as §1
# [4] = compound: CC[C@H](C)[C@@H](C(=O)N[C@@H]([C@@H](C)O)C(=O)N[C@@H](CC(C)C)C(=O)[C@]1(CO1)C)NC(=O)[C@H]([C@@H](C)CC)N(C)C(=O)C [epoxomicin]
# How it was run: as §1
# [5] = compound: CCn1c(C(=O)N(C2CC2)C2CC2)cc2c3c(ncn3C)c(Nc3cc(C)n(C)n3)nc21
# How it was run: as §1
# [6] = compound: CCn1cc(-c2ccnc3[nH]c(-c4cccc(CN(C)C)c4)cc23)c(-c2ccc(NC(=O)N(C)C)cc2)n1
# How it was run: as §1
# [7] = compound: CN(C)CC(=O)Nc1ccc2[nH]c(=O)c3ccccc3c2c1
# How it was run: as §1
# [8] = compound: CN(CCOC1=CC=C(C=C1)C[C@H]2C(=O)NC(=O)S2)C3=CC=CC=N3 (racemic) [rosiglitazone]
# How it was run: as §1
# [9] = compound: CN1C2=C(C3=C1C(=O)N(N=C3)CC4=CC(=CC=C4)N)SC(=C2)S(=O)C
# How it was run: as §1
# [10] = compound: CN1CCC(CNc2ccc3ncc(-c4cccc(OC(F)(F)F)c4)n3n2)CC1
# How it was run: as §1
Target,log2 fold change [1],log2 fold change [2],log2 fold change [3],log2 fold change [4],log2 fold change [5],log2 fold change [6],log2 fold change [7],log2 fold change [8],log2 fold change [9],log2 fold change [10]
PFKP (UniProt Q01813),inactive: -0.018,inactive: 0.038,inactive: -0.026,inactive: 0.004,inactive: -0.016,inactive: -0.026,inactive: 0.015,inactive: 0.006,inactive: -0.099,inactive: -0.008
PHC3 isoform 7 (UniProt Q8NDX5),inactive: 0.076,inactive: -0.163,inactive: 0.178,inactive: 0.254,,,,,,
PFKFB3 isoform 4 (UniProt Q16875),inactive: -0.043,inactive: -0.114,inactive: 0.02,inactive: 0.088,inactive: 0.012,inactive: -0.01,inactive: 0.034,inactive: -0.045,inactive: -0.122,inactive: -0.115
PFDN6 (UniProt O15212),inactive: 0.062,inactive: 0.046,inactive: -0.014,inactive: 0.016,inactive: 0.02,inactive: 0.016,inactive: 0.02,inactive: 0.006,inactive: 0.006,inactive: -0.005
PHKB isoform 3 (UniProt Q93100),inactive: -0.062,inactive: -0.148,inactive: 0.015,inactive: -0.026,inactive: -0.061,inactive: 0.087,inactive: 0.062,inactive: 0.046,inactive: 0.022,inactive: -0.05
PIK3R2 (UniProt O00459),inactive: 0.07,inactive: -0.188,inactive: 0,inactive: -0.029,inactive: -0.039,inactive: -0.003,inactive: 0.052,inactive: 0.058,inactive: -0.002,inactive: 0.128
PEX19 (UniProt P40855),inactive: 0.014,inactive: 0.012,inactive: -0.045,inactive: 0.023,inactive: -0.001,inactive: 0.05,inactive: 0.005,inactive: 0,inactive: -0.037,inactive: 0.027
PLD1 (UniProt Q13393),inactive: 0.036,inactive: 0.136,inactive: -0.064,inactive: 0.028,inactive: 0.094,inactive: -0.029,inactive: -0.065,inactive: -0.266,inactive: 0.161,inactive: -0.139
PEX6 (UniProt Q13608),inactive: -0.05,inactive: 0.004,inactive: -0.003,inactive: -0.012,inactive: -0.03,inactive: -0.049,inactive: 0.054,inactive: 0.007,inactive: -0.011,inactive: -0.043
PGLS (UniProt O95336),inactive: 0.023,inactive: -0.025,inactive: -0.06,inactive: 0.366,inactive: -0.022,inactive: 0.031,inactive: 0.186,inactive: -0.01,inactive: -0.048,inactive: 0.127
PGS1 (UniProt Q32NB8),inactive: -0.048,inactive: -0.032,inactive: 0.032,inactive: 0.089,inactive: 0.045,inactive: -0.246,inactive: 0.002,inactive: -0.027,inactive: -0.017,inactive: 0.05
PHF3 (UniProt Q92576),inactive: 0.246,inactive: 0.193,inactive: 0.062,inactive: -0.061,inactive: -0.007,inactive: 0.057,inactive: -0.057,inactive: -0.134,inactive: 0.218,inactive: 0.098
PIGA (UniProt P37287),inactive: 0.044,inactive: -0.014,inactive: -0.029,inactive: 0.04,inactive: -0.005,inactive: 0.166,inactive: -0.02,inactive: 0.054,inactive: -0.044,inactive: 0.19
PKLR (UniProt P30613),inactive: 0.014,inactive: -0.007,inactive: -0.032,inactive: 0.013,inactive: -0.011,inactive: -0.007,inactive: -0.012,inactive: 0.019,,inactive: -0.069
PIP5K1A (UniProt Q99755),inactive: 0.063,inactive: 0.283,inactive: 0.044,inactive: -0.024,,inactive: 0.03,inactive: -0.159,inactive: -0.045,inactive: 0.154,inactive: -0.233
PFDN2 (UniProt Q9UHV9),inactive: 0.057,inactive: 0.073,inactive: -0.044,inactive: -0.005,inactive: 0.05,inactive: 0.02,inactive: -0.008,inactive: 0.011,inactive: -0.017,inactive: 0.013
PIP4P2 (UniProt Q8N4L2),inactive: -0.092,inactive: -0.054,inactive: -0.07,inactive: -0.192,,inactive: 0.004,inactive: -0.018,,inactive: -0.016,active: -0.375
PLBD2 (UniProt Q8NHP8),inactive: -0.188,active: -0.222,inactive: -0.034,inactive: -0.015,,inactive: 0.029,inactive: 0.008,,inactive: -0.029,inactive: -0.21
PICALM (UniProt Q13492),inactive: -0.007,inactive: -0.043,inactive: 0.008,inactive: 0.035,inactive: -0.008,inactive: 0.012,inactive: 0.036,inactive: 0.01,inactive: -0.046,inactive: -0.032
PIGW (UniProt Q7Z7B1),inactive: -0.05,inactive: -0.023,inactive: 0.038,inactive: 0.033,inactive: -0.032,inactive: -0.117,inactive: 0.06,inactive: 0.014,inactive: -0.083,inactive: -0.203
PHF6 (UniProt Q8IWS0),inactive: 0.095,inactive: 0.068,inactive: 0.058,inactive: -0.282,inactive: -0.003,inactive: 0.176,inactive: -0.063,inactive: -0.085,inactive: 0.295,inactive: 0.236
PKM (UniProt P14618),inactive: 0.018,inactive: 0.037,inactive: -0.035,inactive: 0.001,,inactive: -0.007,inactive: -0.015,,inactive: 0.002,inactive: -0.017
"PIGBOS1, A0A0B4J2F0",inactive: 0.026,inactive: -0.122,inactive: -0.016,inactive: 0.279,inactive: 0.087,inactive: -0.007,inactive: 0.053,inactive: 0.256,inactive: -0.082,inactive: 0.084
PIGU (UniProt Q9H490),inactive: 0.056,inactive: -0.054,inactive: -0.008,inactive: 0.092,inactive: 0.018,inactive: -0.016,inactive: 0.002,inactive: 0.038,inactive: -0.092,inactive: 0.063
PGD (UniProt P52209),inactive: -0.026,inactive: 0.034,inactive: 0.028,inactive: 0.067,inactive: 0.013,inactive: -0.022,inactive: -0.026,inactive: 0.02,inactive: -0.095,inactive: -0.05
PHF23 (UniProt Q9BUL5),inactive: -0.023,inactive: -0.109,inactive: 0.017,inactive: 0.077,inactive: -0.018,inactive: -0.048,inactive: -0.051,inactive: -0.011,inactive: -0.028,inactive: 0.055
PIP4K2C (UniProt Q8TBX8),active: 1.12,active: 1.19,inactive: -0.096,inactive: -0.022,,inactive: 0.05,inactive: -0.016,,inactive: 0.699,inactive: 0.384
PIN4 isoform 2 (UniProt Q9Y237),inactive: -0.039,inactive: 0.006,inactive: 0.005,inactive: -0.01,inactive: 0.028,inactive: 0.03,inactive: 0.012,inactive: 0.065,inactive: -0.012,inactive: -0.056
PI4KB (UniProt Q9UBF8),inactive: 0.013,inactive: -0.024,inactive: 0.051,inactive: 0.061,inactive: 0.005,inactive: 0.001,inactive: 0.028,inactive: -0.014,inactive: -0.063,inactive: -0.081

# A section from further up:
Target,log2 fold change [1],log2 fold change [2],log2 fold change [3],log2 fold change [4],log2 fold change [5],log2 fold change [6],log2 fold change [7],log2 fold change [8],log2 fold change [9],log2 fold change [10]
PIP4K2C (UniProt Q8TBX8),active: 1.12,active: 1.19,inactive: -0.096,inactive: -0.022,,inactive: 0.05,inactive: -0.016,,inactive: 0.699,inactive: 0.384
PIN4 isoform 2 (UniProt Q9Y237),inactive: -0.039,inactive: 0.006,inactive: 0.005,inactive: -0.01,inactive: 0.028,inactive: 0.03,inactive: 0.012,inactive: 0.065,inactive: -0.012,inactive: -0.056
